Measurements reported in PubChem BioAssay AID1159584 (Peter MacCallum Cancer Centre, 2016)
Test: 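Knock-downs that harm CDH1-null cells more than parental MCF10A cells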 (primary screen). Cells: human MCF10A breast epithelial cells, parental and CDH1-null. Reagents: siRNA against human genes. Measured: 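Cell viability by CellTiter-Glo ATP luminescence, each line scaled to the mean of mock wells across plates, then CDH1-null over parental ratio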. Scale: CDH1-null / parental viability ratio: higher = CDH1-null cells survive relatively better than parental.
Shown is an unselected part of about 18,000 reagents. Not all columns of the deposit are shown. Not given: the amount of reagent, the time to read-out.

| Target gene | CDH1-null / parental viability ratio |
| --- | --- |
| MYH1 (myosin heavy chain 1) | 1.2 |
| FBXO15 (F-box protein 15) | 1 |
| NXNL2 (nucleoredoxin like 2) | 1.16 |
| STON1 (stonin 1) | 1.13 |
| PPM1D (protein phosphatase, Mg2+/Mn2+ dependent 1D) | 0.98 |
| DARS2 (aspartyl-tRNA synthetase 2, mitochondrial) | 1.04 |
| RETSAT (retinol saturase) | 1.06 |
| PFN4 (profilin family member 4) | 1.06 |
| FRMD5 (FERM domain containing 5) | 0.82 |
| NXPE2 (neurexophilin and PC-esterase domain family member 2) | 0.97 |
| CTXN1 (cortexin 1) | 0.81 |
| ZMYM2 (zinc finger MYM-type containing 2) | 0.84 |
| HCCS (holocytochrome c synthase) | 1.24 |
| LMNB2 (lamin B2) | 1 |
| BRAP (BRCA1 associated protein) | 0.86 |
| STYXL2 (serine/threonine/tyrosine interacting like 2) | 1.12 |
| CT47A8 (cancer/testis antigen family 47 member A8) | 1.37 |
| NIPSNAP3B (nipsnap homolog 3B) | 0.95 |
| ALDH1L1 (aldehyde dehydrogenase 1 family member L1) | 1.78 |
| TMEM52B (transmembrane protein 52B) | 1.14 |
| C1GALT1C1 (C1GALT1 specific chaperone 1) | 0.86 |
| ACTL7B (actin like 7B) | 0.96 |
| PRPF18 (pre-mRNA processing factor 18) | 1.04 |
| XPC | 0.99 |
| AKNAD1 (AKNA domain containing 1) | 1.03 |
| CCDC28A (coiled-coil domain containing 28A) | 1.1 |
| FGF6 (fibroblast growth factor 6) | 0.98 |
| KIAA0513 | 0.82 |

Records listed so far whose target name begins with S or s (2):
| Target gene | CDH1-null / parental viability ratio |
| --- | --- |
| STON1 (stonin 1) | 1.13 |
| STYXL2 (serine/threonine/tyrosine interacting like 2) | 1.12 |
